Results: the supplement of paper PMC12823440, “Inhibitors supercharge kinase turnover through native proteolytic circuits” (Nature, 2025)
Where a name gives a salt, the structure may show the parent alone. The list shows a part of the results. The calls rarely recur for the same compound in another form.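 In K562 cells expressing nanoluciferase-fused kinases, luminescence was recorded at 4 h intervals between 2 and 18 h, normalized as percent of control with DMSO at 100% and a positive control at 0%. A significant (2 sigma) signal drop marks a time point as decreased. The authors' rule for a hit is not shown and takes in more than the number of time points.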

Amino acid sequences for entries named in this document (tags omitted). A change or cut given only in a name is not applied to a line headed by its entry.
UniProt Q13555: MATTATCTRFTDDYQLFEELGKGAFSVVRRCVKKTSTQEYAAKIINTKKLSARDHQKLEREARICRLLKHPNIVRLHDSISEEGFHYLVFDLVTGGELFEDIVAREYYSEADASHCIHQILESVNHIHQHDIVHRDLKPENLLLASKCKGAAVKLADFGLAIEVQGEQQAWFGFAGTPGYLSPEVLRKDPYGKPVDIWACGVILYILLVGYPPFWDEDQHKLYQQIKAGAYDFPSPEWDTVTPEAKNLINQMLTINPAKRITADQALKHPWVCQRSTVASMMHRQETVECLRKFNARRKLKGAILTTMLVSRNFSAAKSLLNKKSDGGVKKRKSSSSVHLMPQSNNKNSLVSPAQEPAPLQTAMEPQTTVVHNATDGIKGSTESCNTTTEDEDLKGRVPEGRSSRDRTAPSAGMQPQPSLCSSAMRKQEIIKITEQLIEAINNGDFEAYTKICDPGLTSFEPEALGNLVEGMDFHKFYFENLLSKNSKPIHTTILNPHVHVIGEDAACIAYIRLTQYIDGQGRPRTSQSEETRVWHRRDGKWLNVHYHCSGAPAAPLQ
UniProt Q15131: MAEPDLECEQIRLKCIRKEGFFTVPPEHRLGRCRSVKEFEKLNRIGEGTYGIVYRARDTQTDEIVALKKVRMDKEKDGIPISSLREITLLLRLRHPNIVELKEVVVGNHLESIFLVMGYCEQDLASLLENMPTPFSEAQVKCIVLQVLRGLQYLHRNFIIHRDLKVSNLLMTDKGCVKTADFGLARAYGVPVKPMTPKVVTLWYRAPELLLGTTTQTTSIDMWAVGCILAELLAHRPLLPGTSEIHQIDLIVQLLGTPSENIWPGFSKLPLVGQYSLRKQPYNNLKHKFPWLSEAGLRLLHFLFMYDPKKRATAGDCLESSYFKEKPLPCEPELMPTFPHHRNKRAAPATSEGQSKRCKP

target: CAMK2G (UniProt Q13555); test: kinase-Nluc reporter destabilization hit call (1 = scored as downregulated) (binary); higher = compound decreases kinase abundance; conditions: K562; 2-18 h

kinase-Nluc reporter destabilization hit call, inactive:
CC(C)=CC[C@H](O)C1=CC(=O)c2c(O)ccc(O)c2C1=O [(-)-Alkannin] (2.5 µM) 0
CC(C)c1cnc(-c2cc(Cl)ccc2F)cc1Nc1ccncc1C(=O)NC(CO)CO (2.5 µM) 0
Cn1cnc(-c2cc3nccc(Oc4ccc(NC(=S)NC(=O)Cc5ccccc5)cc4F)c3s2)c1 [MGCD-265 analog] (10 µM) 0
COC1(c2sc3c(N4CCOCC4)nc(-c4cnc(N)nc4)nc3c2C)COC1 (2.5 µM) 0
Cc1cc(NC(=O)c2cccc(NC(=O)/C=C/CN(C)C)c2)ccc1Nc1nccc(-c2cccnc2)n1 (10 µM) 0
O=C(/C=C/c1ccc(O)c(O)c1)OC1CC(OC(=O)/C=C/c2ccc(O)c(O)c2)(C(=O)O)CC(O)C1O (stereo unspecified) [1,3-Dicaffeoylquinic acid] (10 µM) 0
COc1ccc2c(c1O)OC(C)(C)c1c-2ccc2c1C(=O)N(c1ccc(C(=O)c3ccccc3)cc1)C2=O [Ampkinone] (10 µM) 0
CNC(=O)Nc1ccc(-c2cc(-c3ccnc(Nc4ccc(C)c(S(=O)(=O)N(C)C)c4)n3)ccn2)cc1 [hSMG-1 inhibitor 11e] (2.5 µM) 0

target: CDK10 (UniProt Q15131); test: as above; conditions: K562; 2-18 h

kinase-Nluc reporter destabilization hit call, inactive:
O=c1cc(O)cc(/C=C/c2ccc(O)c(O)c2)o1 [Hispidin] (10 µM) 0
CC1CN(C(=O)Nc2ccc(Cl)c(Cl)c2)C(=Nc2ccc(F)cc2)S1 (stereo unspecified) (10 µM) 0
COc1cc2c[n+](C)c3c4cc5c(cc4ccc3c2cc1OC)OCO5 [Nitidine (chloride)] (2 µM) 0
Cc1c(CN2CCN(S(C)(=O)=O)CC2)sc2c(N3CCOCC3)nc(-c3cnc(N)nc3)nc12 (2.5 µM) 0
Cc1cc([C@H](C)Nc2ccccc2)c2oc(N3CCOCC3)cc(=O)c2c1 (10 µM) 0
O=C(CNC(=O)c1ccc(-c2ccccc2)cc1)NC1CCCc2ccccc21 (stereo unspecified) [TAO Kinase inhibitor 1] (10 µM) 0
Cn1cc(-c2ccc(CNc3cc(-c4cnc5cc(OCCCN6CCCC6)ccn45)ncn3)cc2)cn1 (10 µM) 0
Cc1ccc(S(=O)(=O)Nc2ccccc2C=Nc2ccccc2NS(=O)(=O)c2ccc(C)cc2)cc1 (10 µM) 0
O=C(/C=C/c1ccc(O)c(O)c1)c1ccc(O[C@@H]2O[C@H](CO)[C@@H](O)[C@H](O)[C@H]2O)c(O)c1O [Marein] (10 µM) 0
O=C(NCCCNc1nc(Nc2cccc(NC(=O)N3CCCC3)c2)ncc1I)c1cccs1 (2.5 µM) 0
CN(CCNc1ccc2ncc(-c3ccc(C(N)=O)cc3)n2n1)C(=O)OC(C)(C)C (10 µM) 0
C=C(C)C(=O)Nc1cccc(-c2ncnc3[nH]cc(C(=O)OCC)c23)c1 (10 µM) 0
COc1ccc(C(=C2C(=O)Nc3ccccc32)c2ccc(OC)cc2)cc1 (10 µM) 0
CN1CCN(c2ccc(C(=O)Nc3cc(-c4cccc(NS(=O)(=O)c5ccccc5)c4)[nH]n3)cc2)CC1 [BPR1J-097 Hydrochloride] (2.5 µM) 0
C=CC(=O)Nc1cc2c(Nc3ccc(OCc4ccccn4)c(Cl)c3)ncnc2cc1OCCN1CCOCC1 (10 µM) 0
Cc1c(NC(=O)OC[C@@H]2COCCN2)cn2ncnc(Nc3ccc4c(cnn4Cc4cccc(F)c4)c3)c12 (10 µM) 0
CNc1nc(Nc2cnn(C3CCN(C4COC4)CC3F)c2Cl)ncc1C(F)(F)F (stereo unspecified) (10 µM) 0
O=C(NCCO)c1ccc2c(c1)nc(Nc1cccc(Cl)c1)c1ccncc12 [CK2 inhibitor 2] (10 µM) 0
N#CC(c1ccnc(NCCc2cccnc2)n1)c1nc2ccccc2s1 (stereo unspecified) (10 µM) 0
CCN(CC)S(=O)(=O)c1ccc(OC)c(N2CCN(C(=O)c3ccc(F)cc3C(F)(F)F)CC2)c1 (10 µM) 0
CO[C@H]1C[C@@H]2CC[C@@H](C)[C@@](O)(O2)C(=O)C(=O)N2CCCC[C@H]2C(=O)O[C@H]([C@H](C)C[C@@H]2CC[C@@H](O)[C@H](OC)C2)CC(=O)[C@H](C)/C=C(\C)[C@@H](O)[C@@H](OC)C(=O)[C@H](C)C[C@H](C)/C=C/C=C/C=C/1C [Rapamycin] (10 µM) 0
CN(C)CCN(Cc1ccc(Cl)cc1)c1ccccn1 [Chloropyramine hydrochloride] (10 µM) 0
O=C(Nc1ccc(F)cc1F)[C@H](NC(=S)Nc1cc(C(F)(F)F)cc(C(F)(F)F)c1)c1ccccc1 (2.5 µM) 0
Cc1ccc(Nc2cc(-c3cccc(N4C(=O)c5ccccc5C4=O)c3)ncn2)cc1NS(C)(=O)=O (10 µM) 0
CC(C)(C)c1ccc(S(=O)(=O)Nc2ccc(-n3ccnc3)cc2)cc1 (10 µM) 0
CCc1cc(O)c(F)cc1-c1ccc2c(-c3nc4c([nH]3)CN(C3CCN(C)CC3)CC4)n[nH]c2c1 [JAK-IN-5 (hydrochloride)] (2 µM) 0
CC1=C2C(=O)O[C@@H](c3ccoc3)[C@]2(C)CCC1 [Fraxinellone] (10 µM) 0
COc1cc(C(N)=O)nc(-c2cccc(C#C[C@]3(O)CCN(C)C3=O)c2)c1 (10 µM) 0
COc1ncc(-c2nc(N3CCOCC3)nc3c(CN4CCC(C(C)(C)O)CC4)cc(F)cc23)cc1NS(C)(=O)=O [Linperlisib] (10 µM) 0
Fc1ccc(-c2nc(-c3ccccc3F)[nH]c2-c2ccncc2)cc1 (2.5 µM) 0
CC(C)=CC[C@H](O)C1=CC(=O)c2c(O)ccc(O)c2C1=O [(-)-Alkannin] (2.5 µM) 0
CC(C)c1cnc(-c2cc(Cl)ccc2F)cc1Nc1ccncc1C(=O)NC(CO)CO (2.5 µM) 0
Cn1cnc(-c2cc3nccc(Oc4ccc(NC(=S)NC(=O)Cc5ccccc5)cc4F)c3s2)c1 [MGCD-265 analog] (10 µM) 0
COC1(c2sc3c(N4CCOCC4)nc(-c4cnc(N)nc4)nc3c2C)COC1 (2.5 µM) 0
Cc1cc(NC(=O)c2cccc(NC(=O)/C=C/CN(C)C)c2)ccc1Nc1nccc(-c2cccnc2)n1 (10 µM) 0
O=C(/C=C/c1ccc(O)c(O)c1)OC1CC(OC(=O)/C=C/c2ccc(O)c(O)c2)(C(=O)O)CC(O)C1O (stereo unspecified) [1,3-Dicaffeoylquinic acid] (10 µM) 0
COc1ccc2c(c1O)OC(C)(C)c1c-2ccc2c1C(=O)N(c1ccc(C(=O)c3ccccc3)cc1)C2=O [Ampkinone] (10 µM) 0
CNC(=O)Nc1ccc(-c2cc(-c3ccnc(Nc4ccc(C)c(S(=O)(=O)N(C)C)c4)n3)ccn2)cc1 [hSMG-1 inhibitor 11e] (2.5 µM) 0
